Assay results: PMC8274477
Results are given in words; binding and its absence hold for the method and conditions named. Some entries that bind do so weakly or less than the wild type.

Amino acid sequences for entries named in this document (tags omitted).
UniProt O75340: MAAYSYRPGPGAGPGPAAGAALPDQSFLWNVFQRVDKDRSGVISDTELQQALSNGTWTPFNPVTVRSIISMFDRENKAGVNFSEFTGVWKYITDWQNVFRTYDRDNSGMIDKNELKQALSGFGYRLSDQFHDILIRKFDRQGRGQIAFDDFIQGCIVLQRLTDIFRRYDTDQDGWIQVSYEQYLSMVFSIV

Key:
Assay in all cases: peptide or protein array; HuProt human proteome microarray; 5 ug/5 ml biotin-labelled LUBAC or OTULIN in solution, 1 h at room temperature; Cy5-streptavidin, scanned at 635 nm; BSA as negative control; hits: Z-score >= 3 and I_(Mean_Ratio) >= 1.4; both purified
PDCD6 (human) = PDCD6 (human) (UniProt O75340)
NUMBL (human) = biological target: T1, NUMBL (human) (UniProt Q9Y6R0)
T1 sequence: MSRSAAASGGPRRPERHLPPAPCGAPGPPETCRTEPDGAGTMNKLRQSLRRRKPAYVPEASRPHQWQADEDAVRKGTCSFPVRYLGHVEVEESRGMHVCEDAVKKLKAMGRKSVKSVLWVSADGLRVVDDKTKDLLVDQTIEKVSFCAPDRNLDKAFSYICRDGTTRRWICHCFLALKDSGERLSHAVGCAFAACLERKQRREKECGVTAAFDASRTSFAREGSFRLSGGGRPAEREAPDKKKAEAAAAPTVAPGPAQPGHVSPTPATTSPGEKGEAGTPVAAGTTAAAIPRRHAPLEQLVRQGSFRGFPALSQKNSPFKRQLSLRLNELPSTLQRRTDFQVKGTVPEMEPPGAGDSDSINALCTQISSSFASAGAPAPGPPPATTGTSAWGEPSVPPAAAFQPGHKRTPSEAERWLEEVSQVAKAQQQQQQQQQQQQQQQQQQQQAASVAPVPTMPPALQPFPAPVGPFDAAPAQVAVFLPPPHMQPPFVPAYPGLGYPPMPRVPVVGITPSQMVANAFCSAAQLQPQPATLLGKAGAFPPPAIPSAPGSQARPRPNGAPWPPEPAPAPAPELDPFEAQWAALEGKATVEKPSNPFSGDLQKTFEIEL

KCNAB2 (human) = biological target: T2, KCNAB2 (human) (UniProt Q13303)
T2 sequence: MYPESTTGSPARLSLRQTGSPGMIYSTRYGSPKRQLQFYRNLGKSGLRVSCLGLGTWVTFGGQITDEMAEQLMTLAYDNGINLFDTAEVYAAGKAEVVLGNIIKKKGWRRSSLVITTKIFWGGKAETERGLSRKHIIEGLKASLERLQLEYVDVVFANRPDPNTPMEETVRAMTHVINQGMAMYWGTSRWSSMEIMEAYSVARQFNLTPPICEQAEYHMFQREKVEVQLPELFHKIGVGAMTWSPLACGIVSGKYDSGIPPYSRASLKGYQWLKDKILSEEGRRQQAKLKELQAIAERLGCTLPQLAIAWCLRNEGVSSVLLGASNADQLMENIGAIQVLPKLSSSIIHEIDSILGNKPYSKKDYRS

PYCR2 (human) = biological target: T3, PYCR2 (human) (UniProt Q96C36)
T3 sequence: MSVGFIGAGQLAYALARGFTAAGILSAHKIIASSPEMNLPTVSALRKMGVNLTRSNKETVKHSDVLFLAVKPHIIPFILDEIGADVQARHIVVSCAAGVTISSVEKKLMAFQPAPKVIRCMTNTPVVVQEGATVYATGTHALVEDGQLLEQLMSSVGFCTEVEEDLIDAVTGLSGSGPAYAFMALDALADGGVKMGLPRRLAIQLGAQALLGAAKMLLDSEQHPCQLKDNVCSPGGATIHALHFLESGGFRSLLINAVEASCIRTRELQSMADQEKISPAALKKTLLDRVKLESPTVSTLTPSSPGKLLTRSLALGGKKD

GPT2 (human) = biological target: T4, GPT2 (human) (UniProt Q8TD30)
T4 sequence: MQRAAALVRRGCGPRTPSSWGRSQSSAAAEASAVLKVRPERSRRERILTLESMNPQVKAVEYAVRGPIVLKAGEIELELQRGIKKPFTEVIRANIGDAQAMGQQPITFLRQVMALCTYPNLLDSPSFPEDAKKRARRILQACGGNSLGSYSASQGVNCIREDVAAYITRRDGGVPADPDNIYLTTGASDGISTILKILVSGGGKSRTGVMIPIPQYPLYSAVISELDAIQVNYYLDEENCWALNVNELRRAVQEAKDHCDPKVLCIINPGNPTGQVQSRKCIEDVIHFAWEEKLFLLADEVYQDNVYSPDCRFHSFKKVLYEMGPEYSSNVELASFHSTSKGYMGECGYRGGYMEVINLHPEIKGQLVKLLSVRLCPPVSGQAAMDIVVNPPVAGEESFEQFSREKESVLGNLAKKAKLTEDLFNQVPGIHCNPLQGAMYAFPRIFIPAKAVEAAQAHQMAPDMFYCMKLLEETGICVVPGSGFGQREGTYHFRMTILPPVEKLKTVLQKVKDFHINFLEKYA

Measured: binding

linear ubiquitin chain assembly complex (LUBAC), purified as HIS-tagged HOIP with the subunit HOIL-1, biotin-labelled (from UniProt Q96EP0 1-1072; Q9BYM8 1-510)
binds: all assays above
